# Values from PubChem BioAssay AID1259425 (University of Nebraska Medical Center, 2018)
# Test: 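Find knockdowns that reproduce the gene expression pattern seen when KSR1 is lost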 (primary screen)
# System: HCT116 human colon cancer cells
# Knock-down reagent: siRNA pool against human genes, 50 nM siRNA
# Detection: 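mRNA of six signature genes measured together by branched-DNA assay after 50 nM siRNA pool, blank removed, divided by geometric mean of two housekeeping genes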
# Direction: BNIP3L mRNA: higher = more BNIP3L transcript after knockdown; NDRG1 mRNA: higher = more NDRG1 transcript after knockdown; BNIP3 mRNA: higher = more BNIP3 transcript after knockdown; ALDOC mRNA: higher = more ALDOC transcript after knockdown; ACSL5 mRNA: higher = more ACSL5 transcript after knockdown
# In all, the deposit lists about 14,000 reagents; this is a random part of them. Not stated in the record: the time to read-out.
gene symbol,"BNIP3L mRNA, set 1","NDRG1 mRNA, set 1","BNIP3 mRNA, set 1","ALDOC mRNA, set 1","ACSL5 mRNA, set 1"
TIE1,0.12,0.192,0.413,0.0169,0.213
SLC25A6,0.304,0.211,0.268,0.0563,0.152
SPON2,0.0916,0.37,0.219,0.0141,0.138
ASPN,0.0759,0.137,0.298,0.014,0.168
ACTL6B,0.0821,0.264,0.294,0.0519,0.172
RFXAP,0.0724,0.0827,0.184,0.0207,0.212
GSTM5,0.112,0.266,0.286,0.0411,0.136
ATP6V1D,0.129,0.269,0.515,0.158,0.167
FGF1,0.0991,0.15,0.301,0.0447,0.154
FEZ1,0.0902,0.335,0.329,0.0487,0.0826
ERVW-1,0.138,0.197,0.274,0.0359,0.174
SLC35G5,0.395,0.195,0.453,0.0906,0.332
MSH3,0.117,0.146,0.306,0.024,0.114
TRIP12,0.103,0.0834,0.277,0.0261,0.159
RNASE4,0.212,0.151,0.34,0.0213,0.151
TRAK2,0.0844,0.291,0.218,0.0128,0.185
GNAI1,0.107,0.367,0.597,0.0702,0.345
LGMN,0.077,0.0553,0.217,0.0383,0.071
PLAT,0.0948,0.0835,0.237,0.0316,0.114
SERPINI2,0.0801,0.165,0.169,0.0434,0.246
ODR4,0.101,0.491,0.221,0.0125,0.124
TCEAL1,0.0362,0.168,0.305,-0.0135,0.252
ETV3,0.0824,0.142,0.117,0.0305,0.349
UBE2M,0.0876,0.501,0.255,0.039,0.077
MAPK3,0.09,0.0571,0.277,0.0152,0.168
SNTG1,0.11,0.195,0.375,0.0837,0.201
LINS1,0.115,0.193,0.296,0.0176,0.131
TRPC4AP,0.0726,0.138,0.654,0.045,0.0933
AACS,0.0654,0.164,0.223,0.0171,0.126
SORBS3,0.0494,0.167,0.31,0.0119,0.0878
ALDH1B1,0.0746,0.17,0.297,0.00662,0.131
FUT6,0.175,0.209,0.315,0.0498,0.071
TUBA4B,0.117,0.499,0.338,0.0346,0.294
FRMD8P1,0.119,0.336,0.411,0.126,0.55

Reprinted from the listing for reference:
gene symbol,"BNIP3L mRNA, set 1","NDRG1 mRNA, set 1","BNIP3 mRNA, set 1","ALDOC mRNA, set 1","ACSL5 mRNA, set 1"
TRIP12,0.103,0.0834,0.277,0.0261,0.159
RNASE4,0.212,0.151,0.34,0.0213,0.151
TRAK2,0.0844,0.291,0.218,0.0128,0.185
GNAI1,0.107,0.367,0.597,0.0702,0.345
